Literature values in patent US6933322B2, “Substituted naphthylenes for the treatment of non-insulin dependent diabetes mellitus” (Wyeth, priority 2002, dated 2005).
For at least one compound, name, drawing or mass did not settle the structure.

Test system: diabetic ob/ob mice
Conditions: reference compound, 100 mg/kg/day; cited from earlier work

CC1(COc2ccc(CC3SC(=O)NC3=O)cc2)CCCCC1 (stereo not shown) [Ciglitazone, 5-(4-(1-methylcyclohexylmethoxy)-benzyl)-2,4-dione]
lowering in plasma glucose: significant lowering in plasma glucose
